PubChem BioAssay AID743121 | NCATS | 2013
Assay: 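Partners whose loss is lethal together with topoisomerase I blockade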 (primary screen). Cells: MDA-MB-231 cells, a human breast cancer line. Knock-down reagent: single siRNA against human genes, 20 nM siRNA (0.8 pmol per well). Duration: 120 h (drug added 48 h after transfection, read 72 h later). Challenge: camptothecin 20 nM (about EC30) for 72 h; vehicle 0.1% DMSO in parallel plates. Read-out: 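CellTiter-Glo ATP signal, scaled to control siRNA as percent viability; sensitisation given as log2 of untreated divided by camptothecin-treated viability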. Scale: log2 vehicle/camptothecin viability: higher = stronger sensitisation to camptothecin; viability with camptothecin and viability without drug: higher = more viable cells. Hit rule: 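Active genes have an RSA gene-level p-value below 0.001, computed from the ratios of their separate siRNAs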.
In all, the deposit lists about 26,000 reagents; below is an unselected part. Over the whole deposit, 167 (0.63%) were called active. 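Calls are per gene from RSA p-values that are not deposited; an individual active-marked siRNA can sensitise only weakly.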

The first 2 entries, to show the layout:
no.	gene symbol	PubChem SID	log2 vehicle/camptothecin viability	viability with camptothecin (% of control)	viability without drug (% of control)	Call
1	PPM1L (protein phosphatase, Mg2+/Mn2+ dependent 1L)	SID164576519	0.404	66	87.3	inactive
2	PPM1L (protein phosphatase, Mg2+/Mn2+ dependent 1L)	SID164576520	-0.456	104	75.5	inactive

Results, repeating the preview:
no.	gene symbol	PubChem SID	log2 vehicle/camptothecin viability	viability with camptothecin (% of control)	viability without drug (% of control)	Call
1	PPM1L (protein phosphatase, Mg2+/Mn2+ dependent 1L)	SID164576519	0.404	66	87.3	inactive
2	PPM1L (protein phosphatase, Mg2+/Mn2+ dependent 1L)	SID164576520	-0.456	104	75.5	inactive
3	PPM1L (protein phosphatase, Mg2+/Mn2+ dependent 1L)	SID164576522	-0.211	93.7	81	inactive
4	PPM1L (protein phosphatase, Mg2+/Mn2+ dependent 1L)	SID164576524	-0.00994	78.7	78.2	inactive
5	MYH10 (myosin heavy chain 10)	SID164376783	-0.264	83.2	69.3	inactive
6	MYH10 (myosin heavy chain 10)	SID164376784	-0.302	122	99.2	inactive
7	MYH10 (myosin heavy chain 10)	SID164376785	-0.0731	67.2	63.9	inactive
8	MYH10 (myosin heavy chain 10)	SID164376786	-0.324	105	84.2	inactive
9	UBE2N (ubiquitin conjugating enzyme E2 N)	SID164393258	0.195	72	82.4	inactive
10	UBE2N (ubiquitin conjugating enzyme E2 N)	SID164393261	-0.299	65.6	53.3	inactive
11	UBE2N (ubiquitin conjugating enzyme E2 N)	SID164393263	-0.341	67.2	53	inactive
12	UBE2N (ubiquitin conjugating enzyme E2 N)	SID164393265	0.125	101	110	inactive
13	PATJ (PATJ crumbs cell polarity complex component)	SID164409436	-0.453	80.1	58.5	inactive
14	PATJ (PATJ crumbs cell polarity complex component)	SID164409438	-0.289	72.7	59.5	inactive
15	PATJ (PATJ crumbs cell polarity complex component)	SID164409444	1.18	13.6	30.9	inactive
16	PATJ (PATJ crumbs cell polarity complex component)	SID164409446	0.0568	84.7	88.1	inactive
17	JADE2 (jade family PHD finger 2)	SID164447378	-0.155	81.9	73.5	inactive
18	JADE2 (jade family PHD finger 2)	SID164447379	-0.049	39.3	37.9	inactive
19	JADE2 (jade family PHD finger 2)	SID164447382	0.59	30.2	45.5	inactive
20	FGF7 (fibroblast growth factor 7)	SID164364682	-0.13	108	98.6	inactive
21	FGF7 (fibroblast growth factor 7)	SID164364686	-0.0989	48.7	45.5	inactive
22	FGF7 (fibroblast growth factor 7)	SID164364687	-0.064	103	98.8	inactive
23	FGF7 (fibroblast growth factor 7)	SID164364689	0.381	69.8	90.8	inactive
24	PTPRR (protein tyrosine phosphatase receptor type R)	SID164384059	-0.0886	119	112	inactive
25	PTPRR (protein tyrosine phosphatase receptor type R)	SID164384061	-0.353	61	47.7	inactive
26	PTPRR (protein tyrosine phosphatase receptor type R)	SID164384063	-0.202	84.1	73.1	inactive
27	PTPRR (protein tyrosine phosphatase receptor type R)	SID164384064	-0.114	83	76.7	inactive
28	PTPN7 (protein tyrosine phosphatase non-receptor type 7)	SID164383882	-0.0991	90.3	84.3	inactive
29	PTPN7 (protein tyrosine phosphatase non-receptor type 7)	SID164383885	-0.358	69.3	54.1	inactive
30	PTPN7 (protein tyrosine phosphatase non-receptor type 7)	SID164383886	-0.293	101	82.3	inactive
31	PTPN7 (protein tyrosine phosphatase non-receptor type 7)	SID164383887	-0.114	19.2	17.7	inactive
32	DHRS3 (dehydrogenase/reductase 3)	SID164402659	-0.224	114	97.8	inactive
33	DHRS3 (dehydrogenase/reductase 3)	SID164402660	-3.04	52.9	6.43	inactive
34	DHRS3 (dehydrogenase/reductase 3)	SID164402661	0.258	74.6	89.3	inactive
35	DHRS3 (dehydrogenase/reductase 3)	SID164402663	-0.0211	78.2	77.1	inactive
36	BECN1 (beclin 1)	SID164399179	-0.48	110	78.6	inactive
37	BECN1 (beclin 1)	SID164399180	-0.506	76.3	53.7	inactive
38	BECN1 (beclin 1)	SID164399182	-0.321	71.5	57.2	inactive
39	BECN1 (beclin 1)	SID164399183	-0.628	91.6	59.3	inactive
40	CTDP1 (CTD phosphatase 1)	SID164402093	-0.261	68.6	57.2	inactive
41	CTDP1 (CTD phosphatase 1)	SID164402094	-0.075	52.4	49.8	inactive
42	CTDP1 (CTD phosphatase 1)	SID164402095	-0.177	11.7	10.3	inactive
43	CTDP1 (CTD phosphatase 1)	SID164402097	0.0188	31.5	32	inactive
44	SLC9A3	SID164388499	0.616	65.7	101	inactive
45	SLC9A3	SID164388500	-0.164	68.1	60.8	inactive
46	SLC9A3	SID164388501	-0.129	14.9	13.6	inactive
47	SLC9A3	SID164388504	-0.0707	63.1	60.1	inactive
